# From PubChem BioAssay (NCATS)
# The shares of active, inactive and inconclusive entries below differ from those in the screen. Potencies of inconclusive entries are doubtful fits and often do not repeat. Activity calls are given as the source filed them. Calls follow the shape of the dose curve; as a rule, active = well fitted curve in the direction sought with a large enough effect; inconclusive = small, poorly fitted or top-dose-only effect, or another doubt; inactive = no such curve, though single readings can be large; an effect the other way counts as inactive or inconclusive.
# Assay: Quantitative High-Throughput drug screen in 47 multiple myeloma cell lines against the NCATS MIPE library collection: NCIH929_DSMZ cell viability assay (AID 1918978)
# Settings: NCI-H929 myeloma viability, CellTiter-Glo ATP, 48 h; series mostly up to 45.8 µM; viability, % of control: at the top concentration
# Procedure, shortened: (§1)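 Myeloma cells (500/well) treated with MIPE 4.0 compounds for 48 h at 37 °C, 5% CO2. Viability read as ATP via CellTiter-Glo luminescence after 5 min at RT; DMSO-only wells = 100%, media-only = 0% viability.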
# Also: nearly all actives have a fitted effect of over 35% in size.
# Potency is read from the fitted curve at half-maximal effect.
Structure (SMILES),Potency,"viability, % of control"
NCc1c[nH]c(=S)n1[C@H]1CCc2c(F)cc(F)cc2C1,"inconclusive: 20.9 µM [cytotoxic, single point]",
CCC(=O)N1CCN(c2ccc(-n3c(=O)ccc4cnc5ccc(-c6cnc7ccccc7c6)cc5c43)cc2C(F)(F)F)CC1,"inconclusive: 0.0132 µM [cytotoxic, full curve]",
CC(C)(O)CCc1ccc(OCc2cc(-c3cccc(OC(F)F)c3)c3ncccc3c2)cc1,"inconclusive: 20.9 µM [cytotoxic, partial curve]",
Cc1ccc2c(=O)c3cccc(CC(=O)O)c3oc2c1C,"inconclusive: 33.2 µM [cytotoxic, single point]",
CN1c2ccccc2C(=O)N2CCc3c([nH]c4ccccc34)C21 (configuration not stated),"inconclusive: 26.4 µM [cytotoxic, single point]",
CC(C)(Oc1ccc(C2CC2(Cl)Cl)cc1)C(=O)O (configuration not stated),,inactive: 105% [at 92.2 µM]
CC(NCCc1ccc(O)cc1)C(O)c1ccc(O)cc1 (configuration not stated),,inactive: 114%
Cn1cc(-c2ccncc2)c(-c2ccc(OCc3ccc4ccccc4n3)cc2)n1,"inconclusive: 7.43 µM [cytotoxic, partial curve]",

# A second format for some results above:
Structure (SMILES)	Potency	viability, % of control
CC(C)(O)CCc1ccc(OCc2cc(-c3cccc(OC(F)F)c3)c3ncccc3c2)cc1	inconclusive: 20.9 µM [cytotoxic, partial curve]	
Cc1ccc2c(=O)c3cccc(CC(=O)O)c3oc2c1C	inconclusive: 33.2 µM [cytotoxic, single point]	

# Assay: Quantitative High-Throughput drug screen in 47 multiple myeloma cell lines against the NCATS MIPE library collection: OCIMY1_PLB cell viability assay (AID 1918979)
# Settings: OCI-MY1 myeloma viability, CellTiter-Glo ATP, 48 h; viability: at 45.8 µM (top of the series) unless noted
# Procedure, shortened: as §1
Structure (SMILES),Potency,viability
CC(C)C[C@H](NC(=O)c1cc2ccccc2s1)C(=O)N1CCN(C(=O)[C@H](CO)NS(=O)(=O)c2ccc(Cl)cc2Cl)CC1,"inconclusive: 33.2 µM [cytotoxic, single point]",
Cc1oc(=O)oc1CN1CCN(c2cc3c(cc2F)c(=O)c(C(=O)O)c2n3C(C)S2)CC1 (configuration not stated),,inactive: 97.2%
COc1ccc2c(c1)CC[C@@H](CN(C)CC(=O)O)[C@H]2c1ccccc1,"inconclusive: 7.43 µM [cytotoxic, full curve]",
Nc1cccc(S(=O)(=O)N2CCCN(S(=O)(=O)c3ccc4c(c3)OCCO4)CC2)c1,"inconclusive: 0.0042 µM [cytotoxic, full curve, poor fit]",
CCn1c(-c2nonc2N)nc2c(C#CC(C)(C)O)ncc(OC[C@H]3CCCNC3)c21,active: 4.18 µM,
COc1cc2c(c(OC)c1OC)-c1ccc(OC)c(=O)cc1[C@@H](NC(C)=O)CC2,"inconclusive: 2.35 µM [cytotoxic, partial curve, poor fit]",
Oc1ccc([C@@H]2Oc3ccc(O)cc3[C@@H]3CCC[C@@H]32)cc1,"inconclusive: 37.2 µM [cytotoxic, single point]",
N#CC(=C(N)Sc1ccc(N)cc1)c1ccccc1C(F)(F)F,"inconclusive: 1.48 µM [cytotoxic, full curve, poor fit]",
CCn1c(=O)c2c(nc(C=Cc3ccc(OC)c(OC)c3)n2C)n(CC)c1=O,,inactive: 101%
CCNC(=O)Nc1ccc(Oc2ncnc(N)c2C=NOC)cc1Cl,active: 23.5 µM,
N#CC(c1ccc(Cl)cc1)c1c(Cl)cc(-n2ncc(=O)[nH]c2=O)cc1Cl (configuration not stated),,inactive: 117%
CN(C)CCN(Cc1ccc(Cl)cc1)c1ccccn1,,inactive: 95.5%
COc1ccc2[nH]cc(CCNC(C)=O)c2c1,,inactive: 100%
CCN(CCO)CCCOc1ccc2c(Nc3cc(CC(=O)Nc4cccc(F)c4)[nH]n3)ncnc2c1,,inactive: 100%
N#CC(=C(O)c1ccc(Cl)cc1Cl)c1nc2cc(Cl)ccc2c(=O)[nH]1,"inconclusive: 29.6 µM [cytotoxic, partial curve, poor fit]",
CCCCOCCOc1nc(-c2ccc(C(=O)O)c(F)c2)sc1C,"inconclusive: 0.105 µM [cytotoxic, full curve, poor fit]",
CNC(=O)c1cc(Oc2ccc(NC(=O)Nc3ccc(Cl)c(C(F)(F)F)c3)cc2)ccn1,"inconclusive: 29.6 µM [cytotoxic, single point]",
C=CCn1c(=O)c2cnc(Nc3ccc(N4CCN(C)CC4)cc3)nc2n1-c1cccc(C(C)(C)O)n1,"inconclusive: 1.87 µM [cytotoxic, full curve]",
N[C@@H](Cc1ccc(O)c(O)c1)C(=O)O,"inconclusive: 2.96 µM [rising, partial curve, poor fit]",
CC(C)(C)OC(=O)Nc1ccc(-c2cc(C(=O)NCCCCCCC(=O)NO)no2)cc1,"inconclusive: 3.32 µM [cytotoxic, full curve]",
CON=C(C(=O)N[C@@H]1C(=O)N2C(C(=O)O)=C(Cn3ccc(=N)n3CCO)CS[C@H]12)c1csc(N)n1,"inconclusive: 0.003 µM [rising, full curve, poor fit]",
O=C(O)CCc1ccc(NCc2cccc(Oc3ccccc3)c2)cc1,"inconclusive: 0.0037 µM [rising, full curve, poor fit]",
COc1cccc(Nc2c(C(N)=O)cnc3c(C)cc(S(=O)(=O)c4cccc(C(=O)N(C)C)c4)cc23)c1,,inconclusive: 137% [at 23.2 µM]
COc1ccc2c(c1OC)C(=O)OC2[C@H]1c2c(cc3c(c2OC)OCO3)CCN1C (some centres not stated),"inconclusive: 0.235 µM [cytotoxic, full curve]",
